Results deposited as PubChem BioAssay AID504793 (Drosophila RNAi Screening Center, 2011).
In all, the deposit lists about 23,000 reagents; this is a random part of those with a known target gene and a result. In the full data, 62 (0.27%) are marked active. 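Calls come from follow-up tests whose scores are not deposited, so confirmed genes may have low counts here; counts are not normalised per plate.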 The raw values are shown without normalisation. A plus sign joins genes that one reagent is predicted to hit.

- Screen: 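Knock-downs allowing continued mitosis even though DNA is damaged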 (primary screen)
- Cell system: Drosophila S2R+ cells
- Knock-down reagent: long dsRNA against Drosophila genes, about 0.25 µg dsRNA per well
- Duration: 4 days of dsRNA, then 4 hours of drug before read-out
- Treatment: doxorubicin 0.5 µM for 4 hours to cause double-strand breaks, in cells also given a low, harmless dose of dsRNA against nbs to sensitise the assay
- Measured: 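Mitotic index as the number of phospho-histone H3-positive cells in each well following doxorubicin, given as raw counts without normalisation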
- Reading the numbers: mitotic cells: higher = more cells in mitosis, weaker G2 arrest
- Rule for the call: 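Genes are called active only when high mitotic counts were reproduced with independent dsRNAs and mitosis was checked for delay without damage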
- Meaning of the calls: active = confirmed in follow-up tests; inactive = not confirmed

predicted target | amplicon | mitotic cells, replicate 1 | call
CG34331 | DRSC20679 | 5 | inactive
ND-51 | DRSC03145 | 5 | inactive
CG13325 | DRSC06362 | 6 | inactive
CG13325 | DRSC24773 | 5 | inactive
CG6465 | DRSC16046 | 9 | inactive
CG6465 | DRSC25671 | 11 | inactive
jigr1 | DRSC15233 | 13 | inactive
jigr1 | DRSC22617 | 11 | inactive
CG12986 | DRSC19506 | 11 | inactive
SERCA | DRSC04600 | 2 | inactive
SERCA | DRSC26195 | 4 | inactive
CG33461 | DRSC22892 | 13 | inactive
CG33461 | DRSC26007 | 6 | inactive
Yp1 | DRSC18731 | 8 | inactive
Yp1 | DRSC27876 | – | inactive
TyrRS-m | DRSC04286 | 6 | inactive
CG14853 | DRSC14977 | 17 | inactive
CG14853 | DRSC21528 | 18 | inactive
yrt | DRSC16559 | 24 | inactive
Rok | DRSC20277 | 8 | inactive
Rok | DRSC23348 | 22 | inactive
CG5062 | DRSC18385 | 8 | inactive
CG3860 | DRSC04425 | 7 | inactive
Akt | DRSC14108 | 6 | inactive
CG6277 | DRSC16008 | 18 | inactive
CG6277 | DRSC25150 | 4 | inactive
Noc2 | DRSC03165 | 9 | inactive
CG17271 | DRSC15210 | 10 | inactive
CG17271 | DRSC22982 | 14 | inactive
CG17271 | DRSC25780 | 5 | inactive
Rgk1 (retired record) | DRSC07343 | 3 | inactive
Rgk1 (retired record) | DRSC25970 | 10 | inactive
CG43333 | DRSC23265 | 10 | inactive
CG43333 | DRSC27202 | 3 | inactive
CG10660 | DRSC09769 | 6 | inactive
CG10660 | DRSC29040 | 2 | inactive
CG13842 | DRSC14692 | 8 | inactive
CG32457 | DRSC21722 | 5 | inactive
ths | DRSC23123 | 23 | inactive
ths | DRSC27271 | 8 | inactive
Uhg2 + snoRNA:Me18S-G1620 + snoRNA:U14:30Ea | DRSC01100 | 5 | inactive
CG9483 | DRSC03226 | 2 | inactive
CG9483 | DRSC29929 | 24 | inactive
CG15109 | DRSC06536 | 3 | inactive
CG15109 | DRSC26040 | 7 | inactive
Prim2 | DRSC11610 | 5 | inactive
CG10584 | DRSC11624 | 12 | inactive
CG14780 | DRSC18566 | 14 | inactive
eIF4E7 | DRSC17782 | 20 | inactive
eIF4E7 | DRSC18623 | 9 | inactive
Cyp6d4 | DRSC16633 | 10 | inactive
Cyp6d4 | DRSC24371 | 9 | inactive
CG31792 | DRSC02604 | 2 | inactive
CG15369 | DRSC18041 | 17 | inactive
Svil | DRSC08296 | 3 | inactive
Svil | DRSC08332 | 9 | inactive
Svil | DRSC08494 | 5 | inactive
Svil | DRSC24435 | 2 | inactive
Svil | DRSC25804 | 8 | inactive
CG2100 | DRSC12303 | 6 | inactive
TwdlJ | DRSC15812 | 16 | inactive
Rpt6 | DRSC20571 | 6 | inactive
Rpt6 | DRSC27933 | 12 | inactive
betaNACtes6 | DRSC22925 | 14 | inactive
betaNACtes6 | DRSC26649 | 5 | inactive
NijA | DRSC10637 | 10 | inactive
Mad | DRSC00759 | 4 | inactive
Non3 | DRSC16359 | 8 | inactive
CstF50 | DRSC15434 | 2 | inactive
CG3323 | DRSC18303 | 9 | inactive
CG13288 | DRSC09962 | 2 | inactive
CG42588 | DRSC09820 | 5 | inactive
CG42588 | DRSC22121 | 7 | inactive
CG42588 | DRSC26914 | 3 | inactive
CG42355 | DRSC07967 | 5 | inactive
